# Record: PubChem BioAssay AID1671195 (Yale University, 2021)
# Screen: 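Genes whose knockdown alters LDL uptake in liver cancer cells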 (primary screen)
# Cell system: human Huh7 hepatoma cells
# Knock-down reagent: siRNA pool against human genes, 18 nM
# Timing: about 2 to 2.5 days of knockdown, then 8 h LDL uptake
# Conditions: DiI-labelled LDL at 30 µg/ml for 8 h, in lipoprotein-deficient serum medium
# Detection: 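Per-cell DiI-LDL intensity by automated imaging; well means scaled to the plate median and given as a robust z-score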
# Reading the numbers: robust z-score: higher = more LDL uptake after knockdown
# Rule for the call: 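a gene counts as active if at least two replicate z-scores exceed ±2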
# This is a random part of about 22,000 deposited reagents. Of all reagents, about 1,510 (6.9%) got an active call. 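Active includes knockdowns raising or lowering LDL uptake; positive z-scores mean more uptake, negative mean less.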 The numbers tell different reagents against one gene apart.
gene,pool no.,"robust z-score, replicate 1","robust z-score, replicate 2","robust z-score, replicate 3",outcome
LOC441816 (retired record),1,-0.0839,0.0251,-0.0217,inactive
LOC442399 (retired record),1,-0.32,0.138,0.107,inactive
RRM2 (ribonucleotide reductase regulatory subunit M2),1,0.0449,-0.292,-0.187,inactive
RRM2 (ribonucleotide reductase regulatory subunit M2),2,-0.801,-1.47,-1.32,inactive
LOC388713 (retired record),1,1.04,0.429,0.445,inactive
ARMCX1 (armadillo repeat containing X-linked 1),1,0.86,1.28,0.664,inactive
BMPR1A (bone morphogenetic protein receptor type 1A),1,0.871,-0.232,0.877,inactive
LOC440786,1,-3.13,-0.0587,0.162,inactive
LOC440806 (retired record),1,-1.59,-0.866,-0.498,inactive
LOC392749 (retired record),1,1.11,2.16,1.55,inactive
HDAC9 (histone deacetylase 9),1,0.291,-0.238,-1.13,inactive
GLRX (glutaredoxin),1,-0.873,-0.184,-1.18,inactive
RPE (ribulose-5-phosphate-3-epimerase),1,-0.162,-0.171,-0.204,inactive
ANKH (ANKH inorganic pyrophosphate transport regulator),1,-1.13,-1.78,2.22,inactive
CLIC3 (CLIC family member 3),1,0.255,-0.103,1.09,inactive
EBNA1BP2 (EBNA1 binding protein 2),1,-1.38,0.026,-1.4,inactive
SNAI1 (snail family transcriptional repressor 1),1,-0.574,-0.899,-1.07,inactive
CFAP54 (cilia and flagella associated protein 54),1,-0.503,0.265,-0.173,inactive
CFAP54 (cilia and flagella associated protein 54),2,-0.368,-0.281,-0.0569,inactive
"PRG2 (proteoglycan 2, pro eosinophil major basic protein)",1,-0.978,1.67,-1.12,inactive
NLRP11 (NLR family pyrin domain containing 11),1,1.98,1.27,2.28,active
ROBO3 (roundabout guidance receptor 3),1,0.548,0.142,1.26,inactive
LOC389899 (retired record),1,0.389,0.349,0.28,inactive
USP25 (ubiquitin specific peptidase 25),1,0.556,0.0386,1.37,inactive
ENO4 (enolase 4),1,-0.966,-0.925,-0.704,inactive
USF1 (upstream transcription factor 1),1,0.0309,0.0621,-0.159,inactive
AKAP9 (A-kinase anchoring protein 9),1,-0.0976,0.88,0.0533,inactive
MAK (male germ cell associated kinase),1,1.98,1.04,2.8,active
LINC03048 (long independently transcribed non-coding RNA 3048),1,2.85,3.2,3.71,active
PRSS2 (serine protease 2),1,0.889,1.27,0.568,inactive
STARD3 (StAR related lipid transfer domain containing 3),1,1.38,-0.462,1.62,inactive
SHROOM3 (shroom family member 3),1,0.0625,0.766,0.548,inactive
MED4 (mediator complex subunit 4),1,-0.753,-1.36,-0.571,inactive
DAP3 (death associated protein 3),1,-0.143,0.988,0.239,inactive
GHSR (growth hormone secretagogue receptor),1,-1.14,0.0039,-0.688,inactive
FAT2 (FAT atypical cadherin 2),1,-0.598,-0.329,-0.742,inactive
ZNF585B (zinc finger protein 585B),1,-0.0723,0.218,-0.00106,inactive
ZNF860 (zinc finger protein 860),1,-0.678,-1.02,-0.383,inactive
ABCB1 (ATP binding cassette subfamily B member 1),1,-0.216,-0.0252,-0.0657,inactive
LOC391540 (retired record),1,1.07,0.943,1.25,inactive
AGTPBP1 (ATP/GTP binding carboxypeptidase 1),1,-0.87,-0.83,-0.533,inactive
NRBF2 (nuclear receptor binding factor 2),1,-2.22,-0.634,0.212,inactive
EPB41L4A (erythrocyte membrane protein band 4.1 like 4A),1,-0.167,-0.566,-0.585,inactive
DPYSL4 (dihydropyrimidinase like 4),1,-0.754,-1.23,-1.21,inactive
FOXO4 (forkhead box O4),1,2.19,1.92,1.85,active
LOC440127 (retired record),1,-0.321,-0.458,-0.481,inactive
LINC01096 (long independently transcribed non-coding RNA 1096),1,0.336,-0.283,0.141,inactive
TMEM51-AS1 (TMEM51 antisense RNA 1),1,-0.0214,0.0141,-0.0778,inactive
LOC340477 (retired record),1,-0.221,-0.121,-0.152,inactive
TMX2 (thioredoxin related transmembrane protein 2),1,0.795,0.116,0.362,inactive
FABP1 (fatty acid binding protein 1),1,1.34,-0.37,-2.81,inactive
OR52D1 (olfactory receptor family 52 subfamily D member 1),1,-0.424,-0.11,-0.23,inactive
MZB1 (marginal zone B and B1 cell specific protein),1,0.456,0.868,0.165,inactive
ARHGEF2 (Rho/Rac guanine nucleotide exchange factor 2),1,0.625,0.177,0.0822,inactive
TLX1 (T cell leukemia homeobox 1),1,-1.02,-0.0126,-0.351,inactive
CA13 (carbonic anhydrase 13),1,-0.454,-0.611,-1.09,inactive
MED23 (mediator complex subunit 23),1,-1.09,0.835,-0.877,inactive
HHIP (hedgehog interacting protein),1,-0.884,-1.11,-0.0691,inactive
AKAP4 (A-kinase anchoring protein 4),1,-1,-0.201,-0.878,inactive
MAN2A1 (mannosidase alpha class 2A member 1),1,0.148,0.679,0.0927,inactive
CYB5R2 (cytochrome b5 reductase 2),1,-0.00546,0.697,-0.616,inactive
LOC442281 (retired record),1,1.25,2.19,1.68,inactive
LAYN (layilin),1,0.379,0.244,0.74,inactive
MED19 (mediator complex subunit 19),1,-0.998,-1.38,-1.08,inactive
OR2T27 (olfactory receptor family 2 subfamily T member 27),1,-0.0125,0.81,0.369,inactive
CLEC11A (C-type lectin domain containing 11A),1,1.27,0.962,2.04,inactive
HOMER1 (homer scaffold protein 1),1,0.246,2.49,-0.143,inactive
COMMD3 (COMM domain containing 3),1,-0.575,0.429,0.0543,inactive
